{
  "sequences": {"note": "Amino acid sequences for entries named in this document (tags omitted). A change or cut given only in a name is not applied to a line headed by its entry.", "UniProt Q8IYB7": "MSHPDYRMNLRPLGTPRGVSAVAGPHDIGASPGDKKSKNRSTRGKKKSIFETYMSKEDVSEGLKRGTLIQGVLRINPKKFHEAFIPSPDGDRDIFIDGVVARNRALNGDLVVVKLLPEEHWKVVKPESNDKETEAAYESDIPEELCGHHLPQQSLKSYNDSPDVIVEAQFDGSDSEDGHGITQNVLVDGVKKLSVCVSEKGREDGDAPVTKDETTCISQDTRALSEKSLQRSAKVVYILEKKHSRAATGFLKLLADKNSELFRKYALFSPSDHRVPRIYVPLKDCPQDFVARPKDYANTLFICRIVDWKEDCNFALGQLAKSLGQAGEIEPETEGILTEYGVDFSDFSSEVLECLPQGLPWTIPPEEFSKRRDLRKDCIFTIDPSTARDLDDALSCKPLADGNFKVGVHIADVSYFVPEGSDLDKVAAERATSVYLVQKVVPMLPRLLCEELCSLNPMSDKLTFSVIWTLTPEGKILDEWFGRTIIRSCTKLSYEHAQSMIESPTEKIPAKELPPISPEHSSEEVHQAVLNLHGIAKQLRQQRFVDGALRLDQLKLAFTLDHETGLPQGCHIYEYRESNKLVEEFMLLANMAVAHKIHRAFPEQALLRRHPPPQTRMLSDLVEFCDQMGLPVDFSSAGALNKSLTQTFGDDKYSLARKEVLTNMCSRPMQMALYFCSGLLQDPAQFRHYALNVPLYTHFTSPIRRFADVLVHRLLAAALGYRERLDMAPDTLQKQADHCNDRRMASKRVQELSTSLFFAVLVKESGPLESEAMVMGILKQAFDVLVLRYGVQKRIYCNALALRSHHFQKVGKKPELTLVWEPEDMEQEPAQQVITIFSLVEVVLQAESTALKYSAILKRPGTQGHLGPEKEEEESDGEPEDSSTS", "UniProt Q9NPF5, whole entry": "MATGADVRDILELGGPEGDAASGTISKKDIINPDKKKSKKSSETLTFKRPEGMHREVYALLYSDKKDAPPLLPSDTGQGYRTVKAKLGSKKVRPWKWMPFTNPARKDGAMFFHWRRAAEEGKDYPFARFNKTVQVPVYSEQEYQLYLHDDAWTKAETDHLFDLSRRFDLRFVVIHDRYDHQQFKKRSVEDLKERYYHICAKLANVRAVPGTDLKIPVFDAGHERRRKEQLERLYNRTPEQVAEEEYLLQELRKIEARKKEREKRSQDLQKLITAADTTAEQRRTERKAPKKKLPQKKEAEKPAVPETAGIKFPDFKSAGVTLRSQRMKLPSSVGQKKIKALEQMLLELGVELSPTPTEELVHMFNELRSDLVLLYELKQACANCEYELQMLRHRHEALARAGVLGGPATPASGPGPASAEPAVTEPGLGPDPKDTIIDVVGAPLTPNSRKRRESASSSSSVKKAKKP", "UniProt Q5F1R6": "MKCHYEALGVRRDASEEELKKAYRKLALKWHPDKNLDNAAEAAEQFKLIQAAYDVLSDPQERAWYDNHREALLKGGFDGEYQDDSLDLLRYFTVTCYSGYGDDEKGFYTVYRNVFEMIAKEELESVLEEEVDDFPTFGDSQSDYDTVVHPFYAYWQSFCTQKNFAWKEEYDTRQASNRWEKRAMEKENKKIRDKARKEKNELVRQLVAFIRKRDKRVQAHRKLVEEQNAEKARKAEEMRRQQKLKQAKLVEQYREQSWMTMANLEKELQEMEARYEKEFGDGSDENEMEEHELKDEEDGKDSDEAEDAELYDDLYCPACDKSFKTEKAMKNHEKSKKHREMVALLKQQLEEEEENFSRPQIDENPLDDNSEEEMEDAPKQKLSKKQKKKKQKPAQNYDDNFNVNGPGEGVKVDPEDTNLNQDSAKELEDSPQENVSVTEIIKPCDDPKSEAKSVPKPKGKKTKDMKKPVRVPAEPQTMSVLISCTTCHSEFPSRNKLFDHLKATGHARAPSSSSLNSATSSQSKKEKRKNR", "UniProt P10515, whole entry, looked up": "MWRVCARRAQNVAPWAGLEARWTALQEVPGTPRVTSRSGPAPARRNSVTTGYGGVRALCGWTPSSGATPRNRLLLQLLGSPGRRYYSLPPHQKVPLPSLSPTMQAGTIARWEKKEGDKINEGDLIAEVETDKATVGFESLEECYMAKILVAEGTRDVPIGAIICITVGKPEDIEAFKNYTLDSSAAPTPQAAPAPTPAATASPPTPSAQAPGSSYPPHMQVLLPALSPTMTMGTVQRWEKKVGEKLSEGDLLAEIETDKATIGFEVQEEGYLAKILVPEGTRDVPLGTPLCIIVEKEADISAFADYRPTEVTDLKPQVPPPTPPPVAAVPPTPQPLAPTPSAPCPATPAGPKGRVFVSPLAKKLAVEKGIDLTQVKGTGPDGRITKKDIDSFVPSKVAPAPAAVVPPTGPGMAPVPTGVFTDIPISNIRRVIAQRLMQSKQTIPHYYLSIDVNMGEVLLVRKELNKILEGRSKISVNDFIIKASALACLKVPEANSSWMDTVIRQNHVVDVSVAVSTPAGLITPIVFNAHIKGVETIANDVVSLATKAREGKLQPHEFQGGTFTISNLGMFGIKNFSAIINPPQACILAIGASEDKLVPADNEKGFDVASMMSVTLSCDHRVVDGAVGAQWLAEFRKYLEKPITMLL", "UniProt Q9H5Z1": "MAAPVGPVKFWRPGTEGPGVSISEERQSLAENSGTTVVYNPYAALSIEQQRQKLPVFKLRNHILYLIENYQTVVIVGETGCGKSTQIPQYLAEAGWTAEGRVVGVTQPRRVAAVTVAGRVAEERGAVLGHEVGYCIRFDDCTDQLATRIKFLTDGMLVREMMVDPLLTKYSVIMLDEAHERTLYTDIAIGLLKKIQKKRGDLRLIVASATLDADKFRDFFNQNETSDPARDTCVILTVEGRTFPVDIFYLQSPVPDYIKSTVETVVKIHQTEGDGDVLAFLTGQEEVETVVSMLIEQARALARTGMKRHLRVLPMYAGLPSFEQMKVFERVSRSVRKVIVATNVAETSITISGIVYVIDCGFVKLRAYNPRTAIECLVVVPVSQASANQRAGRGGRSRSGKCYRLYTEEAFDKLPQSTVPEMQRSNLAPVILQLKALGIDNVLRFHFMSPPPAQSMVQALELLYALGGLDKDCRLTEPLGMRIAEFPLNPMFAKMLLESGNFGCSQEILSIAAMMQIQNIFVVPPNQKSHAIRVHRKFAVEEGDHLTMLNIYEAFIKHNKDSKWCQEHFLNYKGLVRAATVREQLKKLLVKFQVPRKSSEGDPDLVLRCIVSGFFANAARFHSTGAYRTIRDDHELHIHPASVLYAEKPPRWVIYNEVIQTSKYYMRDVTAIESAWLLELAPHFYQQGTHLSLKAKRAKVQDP", "UniProt Q8IY37": "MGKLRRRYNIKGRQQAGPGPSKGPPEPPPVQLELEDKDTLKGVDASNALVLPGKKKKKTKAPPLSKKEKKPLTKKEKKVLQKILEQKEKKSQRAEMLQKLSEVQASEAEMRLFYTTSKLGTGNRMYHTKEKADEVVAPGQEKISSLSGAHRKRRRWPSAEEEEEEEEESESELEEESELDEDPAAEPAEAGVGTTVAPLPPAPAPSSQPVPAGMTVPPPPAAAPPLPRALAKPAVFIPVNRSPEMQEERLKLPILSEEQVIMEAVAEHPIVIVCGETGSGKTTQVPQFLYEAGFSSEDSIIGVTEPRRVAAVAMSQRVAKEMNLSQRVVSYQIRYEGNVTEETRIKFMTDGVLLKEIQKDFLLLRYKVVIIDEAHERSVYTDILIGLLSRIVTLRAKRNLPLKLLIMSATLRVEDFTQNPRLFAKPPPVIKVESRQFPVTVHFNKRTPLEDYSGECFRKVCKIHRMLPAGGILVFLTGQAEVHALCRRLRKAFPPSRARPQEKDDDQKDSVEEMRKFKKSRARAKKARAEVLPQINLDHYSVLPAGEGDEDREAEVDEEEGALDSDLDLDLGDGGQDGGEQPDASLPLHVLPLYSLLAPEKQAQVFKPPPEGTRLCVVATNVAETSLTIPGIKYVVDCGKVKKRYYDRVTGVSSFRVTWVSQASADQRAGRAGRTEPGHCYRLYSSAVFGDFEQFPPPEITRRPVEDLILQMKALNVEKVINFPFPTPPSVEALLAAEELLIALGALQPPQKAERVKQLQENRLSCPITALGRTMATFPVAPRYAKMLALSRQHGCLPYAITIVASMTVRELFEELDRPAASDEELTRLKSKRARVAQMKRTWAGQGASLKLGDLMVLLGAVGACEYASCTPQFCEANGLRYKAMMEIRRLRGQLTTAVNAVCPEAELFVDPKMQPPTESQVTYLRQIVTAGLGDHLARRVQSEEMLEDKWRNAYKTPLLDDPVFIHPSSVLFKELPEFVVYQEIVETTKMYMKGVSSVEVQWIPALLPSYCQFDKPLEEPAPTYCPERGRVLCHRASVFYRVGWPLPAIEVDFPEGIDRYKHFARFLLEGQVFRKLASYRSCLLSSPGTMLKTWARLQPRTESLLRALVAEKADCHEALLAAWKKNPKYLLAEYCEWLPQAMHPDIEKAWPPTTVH", "UniProt O60884": "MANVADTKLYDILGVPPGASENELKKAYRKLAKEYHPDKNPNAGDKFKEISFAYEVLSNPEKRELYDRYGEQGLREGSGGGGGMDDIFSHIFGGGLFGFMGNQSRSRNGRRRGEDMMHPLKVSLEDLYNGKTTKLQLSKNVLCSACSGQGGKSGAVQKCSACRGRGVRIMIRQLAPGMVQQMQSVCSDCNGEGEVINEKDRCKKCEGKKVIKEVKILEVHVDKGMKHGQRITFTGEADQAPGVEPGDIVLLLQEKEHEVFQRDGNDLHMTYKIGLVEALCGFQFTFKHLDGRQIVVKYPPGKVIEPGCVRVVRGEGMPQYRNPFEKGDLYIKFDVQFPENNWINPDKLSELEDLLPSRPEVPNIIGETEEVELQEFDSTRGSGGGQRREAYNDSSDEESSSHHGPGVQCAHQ", "UniProt O00429, whole entry, looked up": "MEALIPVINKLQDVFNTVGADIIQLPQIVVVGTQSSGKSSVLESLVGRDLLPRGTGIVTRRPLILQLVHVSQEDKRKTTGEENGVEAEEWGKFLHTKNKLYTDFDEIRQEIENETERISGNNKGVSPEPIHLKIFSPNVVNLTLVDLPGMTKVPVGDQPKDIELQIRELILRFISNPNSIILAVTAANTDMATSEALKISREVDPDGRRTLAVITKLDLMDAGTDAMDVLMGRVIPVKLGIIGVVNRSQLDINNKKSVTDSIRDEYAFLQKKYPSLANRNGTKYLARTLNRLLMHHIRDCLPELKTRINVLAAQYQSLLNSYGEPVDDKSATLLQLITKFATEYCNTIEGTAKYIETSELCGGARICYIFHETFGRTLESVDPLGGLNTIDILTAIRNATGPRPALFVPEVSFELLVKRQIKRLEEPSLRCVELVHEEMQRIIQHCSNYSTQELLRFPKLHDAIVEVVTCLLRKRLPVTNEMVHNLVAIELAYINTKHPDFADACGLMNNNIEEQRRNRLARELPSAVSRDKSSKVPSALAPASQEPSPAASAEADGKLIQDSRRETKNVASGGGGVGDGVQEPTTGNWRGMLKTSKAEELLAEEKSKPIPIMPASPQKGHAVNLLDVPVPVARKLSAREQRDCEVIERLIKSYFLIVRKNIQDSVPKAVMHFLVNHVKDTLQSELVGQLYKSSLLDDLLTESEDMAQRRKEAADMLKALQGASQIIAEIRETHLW", "UniProt Q8IX18": "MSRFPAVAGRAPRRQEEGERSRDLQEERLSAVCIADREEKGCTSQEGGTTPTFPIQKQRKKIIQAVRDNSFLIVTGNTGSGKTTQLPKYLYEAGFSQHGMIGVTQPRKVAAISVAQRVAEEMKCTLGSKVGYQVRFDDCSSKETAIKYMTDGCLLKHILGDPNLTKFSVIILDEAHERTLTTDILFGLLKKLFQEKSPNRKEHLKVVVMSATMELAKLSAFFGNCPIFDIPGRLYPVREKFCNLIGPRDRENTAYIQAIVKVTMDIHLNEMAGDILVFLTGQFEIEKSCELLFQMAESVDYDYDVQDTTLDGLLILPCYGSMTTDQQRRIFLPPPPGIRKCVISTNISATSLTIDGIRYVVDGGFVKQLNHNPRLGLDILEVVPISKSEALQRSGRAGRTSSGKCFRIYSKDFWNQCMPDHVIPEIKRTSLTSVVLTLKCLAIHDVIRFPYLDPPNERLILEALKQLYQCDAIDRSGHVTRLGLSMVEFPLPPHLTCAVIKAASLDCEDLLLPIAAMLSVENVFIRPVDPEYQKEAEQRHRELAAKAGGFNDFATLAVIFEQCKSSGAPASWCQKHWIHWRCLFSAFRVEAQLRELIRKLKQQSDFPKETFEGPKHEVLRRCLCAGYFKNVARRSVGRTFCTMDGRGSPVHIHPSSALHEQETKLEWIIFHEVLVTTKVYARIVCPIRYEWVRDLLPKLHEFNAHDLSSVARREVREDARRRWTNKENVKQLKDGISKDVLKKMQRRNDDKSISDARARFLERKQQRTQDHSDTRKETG"},
  "source": "the supplement of paper PMC12067093",
  "about": "“Discovery and optimisation of a covalent ligand for TRIM25 and its application to targeted protein ubiquitination” (Chemical Science, 2025)",
  "compound": "CC1Cc2ccccc2N1C(=O)C1CCCN(C1)C(=O)CCl (mixture of isomers) [TRIM25 ligand 11 (diastereomer mixture)]",
  "test": "probe-labelled cysteine peptide fold change vs DMSO (competition) (log2 fold change); higher = less target engagement (more negative = stronger competition)",
  "settings": "THP-1, incubation time: 4 h",
  "note": "The list shows a part of the results.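 Note: competitive chemoproteomic profiling in live THP-1 cells with an iodoacetamide desthiobiotin (IA-DTB) probe, comparing probe-labelled peptide intensities in compound-treated cells against DMSO-treated controls.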",
  "data": [
    {"target": "DIS3L2_Q8IYB7_303_DYANTLFICR (UniProt Q8IYB7)", "values": [
      {"measurement": "probe-labelled cysteine peptide fold change", "setting": "10 µM", "value": -0.0883},
      {"measurement": "probe-labelled cysteine peptide fold change", "setting": "50 µM", "value": 0.0174}
    ]},
    {"target": "DMAP1_Q9NPF5_199_YYHICAK (UniProt Q9NPF5)", "values": [
      {"measurement": "probe-labelled cysteine peptide fold change", "setting": "10 µM", "value": -0.00316},
      {"measurement": "probe-labelled cysteine peptide fold change", "setting": "50 µM", "value": 0.107}
    ]},
    {"target": "DNAJC21_Q5F1R6_487_VPAEPQTMSVLISCTTCHSEFPSR (UniProt Q5F1R6)", "values": [
      {"measurement": "probe-labelled cysteine peptide fold change", "setting": "10 µM", "value": -0.0893},
      {"measurement": "probe-labelled cysteine peptide fold change", "setting": "50 µM", "value": -0.339}
    ]},
    {"target": "DLAT_P10515_586_NFSAIINPPQACILAIGASEDK (UniProt P10515)", "values": [
      {"measurement": "probe-labelled cysteine peptide fold change", "setting": "10 µM", "value": -0.027},
      {"measurement": "probe-labelled cysteine peptide fold change", "setting": "50 µM", "value": 0.0113}
    ]},
    {"target": "DHX35_Q9H5Z1_609_CIVSGFFANAAR (UniProt Q9H5Z1)", "values": [
      {"measurement": "probe-labelled cysteine peptide fold change", "setting": "10 µM", "value": 0.0248},
      {"measurement": "probe-labelled cysteine peptide fold change", "setting": "50 µM", "value": 0.134}
    ]},
    {"target": "DHX37_Q8IY37_766_LSCPITALGR (UniProt Q8IY37)", "values": [
      {"measurement": "probe-labelled cysteine peptide fold change", "setting": "10 µM", "value": -0.0635},
      {"measurement": "probe-labelled cysteine peptide fold change", "setting": "50 µM", "value": 0.0316}
    ]},
    {"target": "DNAJA2_O60884_308_VIEPGCVR (UniProt O60884)", "values": [
      {"measurement": "probe-labelled cysteine peptide fold change", "setting": "10 µM", "value": 0.103},
      {"measurement": "probe-labelled cysteine peptide fold change", "setting": "50 µM", "value": 0.0856}
    ]},
    {"target": "DNM1L_O00429_361_YIETSELCGGAR (UniProt O00429)", "values": [
      {"measurement": "probe-labelled cysteine peptide fold change", "setting": "10 µM", "value": 0.21},
      {"measurement": "probe-labelled cysteine peptide fold change", "setting": "50 µM", "value": -0.152}
    ]},
    {"target": "DHX40_Q8IX18_225_LSAFFGNCPIFDIPGR (UniProt Q8IX18)", "values": [
      {"measurement": "probe-labelled cysteine peptide fold change", "setting": "10 µM", "value": -0.00196},
      {"measurement": "probe-labelled cysteine peptide fold change", "setting": "50 µM", "value": 0.294}
    ]},
    {"target": "DIS3L2_Q8IYB7_570_LAFTLDHETGLPQGCHIYEYR (UniProt Q8IYB7)", "values": [
      {"measurement": "probe-labelled cysteine peptide fold change", "setting": "10 µM", "value": 0.25},
      {"measurement": "probe-labelled cysteine peptide fold change", "setting": "50 µM", "value": 0.0489}
    ]},
    {"target": "DNAJC13_O75165_12_DLACFYTTK (UniProt O75165)", "values": [
      {"measurement": "probe-labelled cysteine peptide fold change", "setting": "10 µM", "value": -0.0176},
      {"measurement": "probe-labelled cysteine peptide fold change", "setting": "50 µM", "value": 0.185}
    ]},
    {"target": "DNAJA1_P31689_180_IHQIGPGMVQQIQSVCMECQGHGER (UniProt P31689)", "values": [
      {"measurement": "probe-labelled cysteine peptide fold change", "setting": "10 µM", "value": -0.0655},
      {"measurement": "probe-labelled cysteine peptide fold change", "setting": "50 µM", "value": -0.0823}
    ]},
    {"target": "DHX8_Q14562_637_VSEEFGCCLGQEVGYTIR (UniProt Q14562)", "values": [
      {"measurement": "probe-labelled cysteine peptide fold change", "setting": "10 µM", "value": 0.297},
      {"measurement": "probe-labelled cysteine peptide fold change", "setting": "50 µM", "value": 0.476}
    ]}
  ]
}
